Paper PMC8213676, “OsJAZ11 regulates phosphate starvation responses in rice”

Protein sequences, listed by entry. Tags and fused reporters are not part of them. Lines headed by an entry give the natural chain unless they say otherwise; changes in a name come on top.
UniProt Q8GRS2: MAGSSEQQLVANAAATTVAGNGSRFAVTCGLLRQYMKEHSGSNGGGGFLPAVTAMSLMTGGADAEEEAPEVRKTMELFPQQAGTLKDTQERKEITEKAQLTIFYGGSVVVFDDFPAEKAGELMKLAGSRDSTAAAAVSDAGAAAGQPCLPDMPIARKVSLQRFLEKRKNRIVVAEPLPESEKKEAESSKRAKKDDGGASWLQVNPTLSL
UniProt Q336P5: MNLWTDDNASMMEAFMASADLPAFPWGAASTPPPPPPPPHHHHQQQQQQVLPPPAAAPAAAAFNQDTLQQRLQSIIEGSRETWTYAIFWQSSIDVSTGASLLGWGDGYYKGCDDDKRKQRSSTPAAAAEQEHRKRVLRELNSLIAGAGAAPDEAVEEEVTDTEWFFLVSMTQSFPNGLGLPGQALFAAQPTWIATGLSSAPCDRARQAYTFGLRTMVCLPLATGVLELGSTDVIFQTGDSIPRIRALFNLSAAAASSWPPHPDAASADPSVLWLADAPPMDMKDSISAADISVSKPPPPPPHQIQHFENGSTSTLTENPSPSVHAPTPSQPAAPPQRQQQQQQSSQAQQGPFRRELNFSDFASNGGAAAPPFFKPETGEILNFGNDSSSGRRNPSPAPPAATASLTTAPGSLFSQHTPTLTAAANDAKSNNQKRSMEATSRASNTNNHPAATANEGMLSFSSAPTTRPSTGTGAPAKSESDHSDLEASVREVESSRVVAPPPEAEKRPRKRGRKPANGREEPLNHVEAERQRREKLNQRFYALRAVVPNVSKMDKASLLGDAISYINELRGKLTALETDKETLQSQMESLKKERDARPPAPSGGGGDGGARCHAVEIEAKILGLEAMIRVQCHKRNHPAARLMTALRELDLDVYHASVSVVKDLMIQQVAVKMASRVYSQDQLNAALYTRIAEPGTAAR

Target: OsJAZ11 (pBD-OsJAZ11) (rice (Oryza sativa)) (UniProt Q8GRS2)
Assay: two-hybrid; Matchmaker Gold system, yeast strain Y2H Gold; bait in pGBKT7 (BD), prey in pGADT7 (AD); spotted on TDO, QDO and QDO with X-alpha-gal and Aureobasidin A; 30 °C, 3-4 days

binding: binds
Substance: OsMYC2 (pAD-OsMYC2) (from UniProt Q336P5 1-699)

These are yes or no findings as the source states them, for the method shown. Binding calls can cover weak binding; strength is not graded here.
